# From the supplement of paper PMC10849652
# By UniProt entry, the sequences of proteins in these tests, tags left out. Where a name states a change or a piece, a line headed by the entry shows the natural chain unless it says otherwise.
# UniProt Q6ZTN6: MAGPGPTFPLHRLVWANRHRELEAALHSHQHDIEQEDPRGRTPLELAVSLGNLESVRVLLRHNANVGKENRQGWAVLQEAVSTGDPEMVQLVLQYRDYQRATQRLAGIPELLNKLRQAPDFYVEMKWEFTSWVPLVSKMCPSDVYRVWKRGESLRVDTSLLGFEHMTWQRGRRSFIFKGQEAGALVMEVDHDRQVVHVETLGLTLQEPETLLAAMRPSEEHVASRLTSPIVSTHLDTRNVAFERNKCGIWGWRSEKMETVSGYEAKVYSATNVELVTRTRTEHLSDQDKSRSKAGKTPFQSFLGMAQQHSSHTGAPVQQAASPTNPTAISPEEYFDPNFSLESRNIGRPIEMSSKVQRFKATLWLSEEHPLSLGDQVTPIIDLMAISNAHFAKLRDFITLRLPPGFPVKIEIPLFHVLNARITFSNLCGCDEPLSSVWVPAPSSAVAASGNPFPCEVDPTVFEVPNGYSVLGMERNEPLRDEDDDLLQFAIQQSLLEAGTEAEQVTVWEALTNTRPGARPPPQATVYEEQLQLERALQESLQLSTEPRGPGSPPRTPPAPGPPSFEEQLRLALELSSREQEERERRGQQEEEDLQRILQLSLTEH
# UniProt Q9P2R3: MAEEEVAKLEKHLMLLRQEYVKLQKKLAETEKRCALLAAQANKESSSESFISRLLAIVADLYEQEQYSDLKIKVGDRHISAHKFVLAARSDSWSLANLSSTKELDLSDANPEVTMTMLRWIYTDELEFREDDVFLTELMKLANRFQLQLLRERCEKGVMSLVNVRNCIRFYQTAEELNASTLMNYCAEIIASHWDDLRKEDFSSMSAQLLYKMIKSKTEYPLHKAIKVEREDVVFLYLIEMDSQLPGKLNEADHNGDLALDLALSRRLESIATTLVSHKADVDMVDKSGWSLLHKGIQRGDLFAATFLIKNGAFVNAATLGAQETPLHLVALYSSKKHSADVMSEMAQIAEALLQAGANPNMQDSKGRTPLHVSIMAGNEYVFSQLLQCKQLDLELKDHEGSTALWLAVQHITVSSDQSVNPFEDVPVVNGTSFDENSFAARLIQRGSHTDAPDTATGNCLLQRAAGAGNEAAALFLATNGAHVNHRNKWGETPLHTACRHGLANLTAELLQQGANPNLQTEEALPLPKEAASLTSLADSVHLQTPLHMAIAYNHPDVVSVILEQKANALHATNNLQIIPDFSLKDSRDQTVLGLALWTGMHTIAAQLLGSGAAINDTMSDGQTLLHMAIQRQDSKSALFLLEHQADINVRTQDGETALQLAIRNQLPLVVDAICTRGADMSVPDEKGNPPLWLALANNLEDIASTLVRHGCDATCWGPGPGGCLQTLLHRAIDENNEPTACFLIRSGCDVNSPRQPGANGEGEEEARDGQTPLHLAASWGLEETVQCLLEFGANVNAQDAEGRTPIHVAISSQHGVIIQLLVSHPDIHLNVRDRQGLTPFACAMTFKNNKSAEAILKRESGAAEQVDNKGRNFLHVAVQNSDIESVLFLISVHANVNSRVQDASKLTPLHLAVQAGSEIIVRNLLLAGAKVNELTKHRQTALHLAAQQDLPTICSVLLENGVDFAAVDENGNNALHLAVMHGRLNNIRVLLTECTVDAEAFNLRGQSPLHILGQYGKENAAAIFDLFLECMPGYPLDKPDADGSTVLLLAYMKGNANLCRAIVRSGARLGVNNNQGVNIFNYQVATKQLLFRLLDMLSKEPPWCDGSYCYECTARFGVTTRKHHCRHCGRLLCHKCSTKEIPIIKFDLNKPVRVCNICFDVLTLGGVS
# UniProt P13716: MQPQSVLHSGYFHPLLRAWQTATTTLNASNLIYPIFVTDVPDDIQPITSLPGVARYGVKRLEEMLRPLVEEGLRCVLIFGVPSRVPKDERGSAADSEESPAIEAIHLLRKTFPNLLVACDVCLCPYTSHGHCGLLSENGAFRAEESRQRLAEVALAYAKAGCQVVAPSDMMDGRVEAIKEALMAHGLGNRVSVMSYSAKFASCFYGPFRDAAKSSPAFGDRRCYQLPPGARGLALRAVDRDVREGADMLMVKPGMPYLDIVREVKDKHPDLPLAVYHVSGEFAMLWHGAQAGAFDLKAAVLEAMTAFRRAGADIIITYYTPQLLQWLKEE
# UniProt P04083: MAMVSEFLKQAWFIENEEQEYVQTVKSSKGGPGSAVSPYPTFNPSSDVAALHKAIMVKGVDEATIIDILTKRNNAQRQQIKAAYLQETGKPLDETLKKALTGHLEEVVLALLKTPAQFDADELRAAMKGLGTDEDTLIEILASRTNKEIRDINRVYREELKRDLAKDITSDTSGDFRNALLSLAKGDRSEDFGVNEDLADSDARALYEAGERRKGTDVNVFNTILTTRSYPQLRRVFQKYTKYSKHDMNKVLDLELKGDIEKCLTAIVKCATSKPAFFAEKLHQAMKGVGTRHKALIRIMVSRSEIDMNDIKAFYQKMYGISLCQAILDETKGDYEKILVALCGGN
# UniProt P58335, whole entry, looked up: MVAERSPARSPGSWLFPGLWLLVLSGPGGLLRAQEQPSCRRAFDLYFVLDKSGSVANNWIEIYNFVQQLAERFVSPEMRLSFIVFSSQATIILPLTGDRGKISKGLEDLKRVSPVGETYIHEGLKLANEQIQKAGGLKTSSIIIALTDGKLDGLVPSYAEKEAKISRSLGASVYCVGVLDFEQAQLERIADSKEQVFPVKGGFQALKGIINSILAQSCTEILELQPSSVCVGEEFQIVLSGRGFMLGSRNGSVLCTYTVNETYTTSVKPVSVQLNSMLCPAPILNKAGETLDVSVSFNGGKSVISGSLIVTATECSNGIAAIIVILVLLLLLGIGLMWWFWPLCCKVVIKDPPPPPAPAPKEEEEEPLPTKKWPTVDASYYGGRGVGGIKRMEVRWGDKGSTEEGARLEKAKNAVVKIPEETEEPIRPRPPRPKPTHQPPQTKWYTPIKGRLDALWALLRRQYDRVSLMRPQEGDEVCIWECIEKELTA
# UniProt Q9H6U8: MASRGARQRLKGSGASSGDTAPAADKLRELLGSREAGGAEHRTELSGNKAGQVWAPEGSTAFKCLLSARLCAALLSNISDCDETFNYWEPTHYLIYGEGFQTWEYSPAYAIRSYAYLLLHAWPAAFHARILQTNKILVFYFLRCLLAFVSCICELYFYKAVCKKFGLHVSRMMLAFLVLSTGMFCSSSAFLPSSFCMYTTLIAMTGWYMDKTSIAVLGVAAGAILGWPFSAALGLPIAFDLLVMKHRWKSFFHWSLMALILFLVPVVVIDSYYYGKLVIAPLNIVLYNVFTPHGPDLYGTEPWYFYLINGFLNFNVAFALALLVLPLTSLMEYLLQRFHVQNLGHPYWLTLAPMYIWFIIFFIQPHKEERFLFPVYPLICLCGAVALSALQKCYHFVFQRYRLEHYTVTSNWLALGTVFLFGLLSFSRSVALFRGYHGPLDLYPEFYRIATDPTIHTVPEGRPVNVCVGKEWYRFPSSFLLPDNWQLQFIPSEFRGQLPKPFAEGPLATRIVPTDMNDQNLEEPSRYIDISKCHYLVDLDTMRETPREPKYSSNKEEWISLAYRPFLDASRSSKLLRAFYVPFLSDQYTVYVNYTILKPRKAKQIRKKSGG
# UniProt P08133: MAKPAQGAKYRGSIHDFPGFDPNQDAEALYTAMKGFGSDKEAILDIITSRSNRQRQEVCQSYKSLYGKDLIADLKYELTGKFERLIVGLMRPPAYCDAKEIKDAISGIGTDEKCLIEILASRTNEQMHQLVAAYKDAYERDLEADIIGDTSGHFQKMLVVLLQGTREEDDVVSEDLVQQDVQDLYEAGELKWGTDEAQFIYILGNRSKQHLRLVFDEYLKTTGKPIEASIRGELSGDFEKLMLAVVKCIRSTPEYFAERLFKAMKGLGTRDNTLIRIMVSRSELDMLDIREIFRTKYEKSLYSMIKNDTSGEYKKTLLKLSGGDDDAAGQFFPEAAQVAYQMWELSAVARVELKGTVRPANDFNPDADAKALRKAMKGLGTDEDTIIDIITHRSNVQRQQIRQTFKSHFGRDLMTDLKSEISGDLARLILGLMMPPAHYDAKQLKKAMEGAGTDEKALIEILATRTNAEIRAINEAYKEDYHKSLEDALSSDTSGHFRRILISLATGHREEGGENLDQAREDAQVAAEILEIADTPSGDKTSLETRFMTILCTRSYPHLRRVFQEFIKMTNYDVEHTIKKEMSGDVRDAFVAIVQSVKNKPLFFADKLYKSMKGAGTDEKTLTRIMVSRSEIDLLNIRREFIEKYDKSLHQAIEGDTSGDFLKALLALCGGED
# UniProt Q9UPS8: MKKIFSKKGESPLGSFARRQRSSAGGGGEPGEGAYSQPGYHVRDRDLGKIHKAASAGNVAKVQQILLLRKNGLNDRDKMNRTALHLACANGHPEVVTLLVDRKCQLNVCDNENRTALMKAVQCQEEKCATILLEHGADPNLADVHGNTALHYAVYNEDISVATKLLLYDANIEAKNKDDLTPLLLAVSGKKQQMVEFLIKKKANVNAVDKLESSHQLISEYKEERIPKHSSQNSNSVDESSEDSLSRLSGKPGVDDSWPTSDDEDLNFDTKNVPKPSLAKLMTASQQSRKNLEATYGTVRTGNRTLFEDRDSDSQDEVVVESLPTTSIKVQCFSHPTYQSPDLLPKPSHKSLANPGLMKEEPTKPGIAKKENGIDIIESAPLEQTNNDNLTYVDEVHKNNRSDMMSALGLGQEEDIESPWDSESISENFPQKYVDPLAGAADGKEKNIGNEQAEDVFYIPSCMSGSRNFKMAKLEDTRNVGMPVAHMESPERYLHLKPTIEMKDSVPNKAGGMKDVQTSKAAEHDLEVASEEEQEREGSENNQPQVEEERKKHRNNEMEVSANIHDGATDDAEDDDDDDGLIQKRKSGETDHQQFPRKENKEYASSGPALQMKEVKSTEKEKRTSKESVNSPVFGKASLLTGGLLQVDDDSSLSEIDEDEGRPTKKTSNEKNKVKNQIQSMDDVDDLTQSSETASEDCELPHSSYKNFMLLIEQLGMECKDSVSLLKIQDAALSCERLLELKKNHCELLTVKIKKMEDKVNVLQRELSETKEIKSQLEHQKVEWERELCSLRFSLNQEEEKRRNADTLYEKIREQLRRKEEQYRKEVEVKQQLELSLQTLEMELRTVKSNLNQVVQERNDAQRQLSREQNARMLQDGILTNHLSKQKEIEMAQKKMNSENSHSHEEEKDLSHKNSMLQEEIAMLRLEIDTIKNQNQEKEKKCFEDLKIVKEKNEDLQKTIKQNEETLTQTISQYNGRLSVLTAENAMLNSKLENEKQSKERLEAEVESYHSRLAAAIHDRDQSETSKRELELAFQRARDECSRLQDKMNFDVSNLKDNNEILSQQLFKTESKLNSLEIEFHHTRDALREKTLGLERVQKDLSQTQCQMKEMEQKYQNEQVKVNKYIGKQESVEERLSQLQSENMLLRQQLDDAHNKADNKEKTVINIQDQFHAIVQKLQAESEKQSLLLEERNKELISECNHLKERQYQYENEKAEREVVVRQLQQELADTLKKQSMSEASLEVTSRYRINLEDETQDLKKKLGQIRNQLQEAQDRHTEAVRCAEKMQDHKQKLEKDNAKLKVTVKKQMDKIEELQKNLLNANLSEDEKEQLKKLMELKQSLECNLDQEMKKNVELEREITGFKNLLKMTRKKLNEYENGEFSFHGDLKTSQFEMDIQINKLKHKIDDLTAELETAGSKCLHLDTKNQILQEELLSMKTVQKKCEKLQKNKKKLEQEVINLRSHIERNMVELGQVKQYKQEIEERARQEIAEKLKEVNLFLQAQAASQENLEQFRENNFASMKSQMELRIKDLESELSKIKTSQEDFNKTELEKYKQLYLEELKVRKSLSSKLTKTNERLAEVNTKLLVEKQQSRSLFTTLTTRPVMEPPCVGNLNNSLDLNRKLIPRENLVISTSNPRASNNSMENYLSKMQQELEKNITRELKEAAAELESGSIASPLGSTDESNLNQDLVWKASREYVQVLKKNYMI
# UniProt Q96BT7: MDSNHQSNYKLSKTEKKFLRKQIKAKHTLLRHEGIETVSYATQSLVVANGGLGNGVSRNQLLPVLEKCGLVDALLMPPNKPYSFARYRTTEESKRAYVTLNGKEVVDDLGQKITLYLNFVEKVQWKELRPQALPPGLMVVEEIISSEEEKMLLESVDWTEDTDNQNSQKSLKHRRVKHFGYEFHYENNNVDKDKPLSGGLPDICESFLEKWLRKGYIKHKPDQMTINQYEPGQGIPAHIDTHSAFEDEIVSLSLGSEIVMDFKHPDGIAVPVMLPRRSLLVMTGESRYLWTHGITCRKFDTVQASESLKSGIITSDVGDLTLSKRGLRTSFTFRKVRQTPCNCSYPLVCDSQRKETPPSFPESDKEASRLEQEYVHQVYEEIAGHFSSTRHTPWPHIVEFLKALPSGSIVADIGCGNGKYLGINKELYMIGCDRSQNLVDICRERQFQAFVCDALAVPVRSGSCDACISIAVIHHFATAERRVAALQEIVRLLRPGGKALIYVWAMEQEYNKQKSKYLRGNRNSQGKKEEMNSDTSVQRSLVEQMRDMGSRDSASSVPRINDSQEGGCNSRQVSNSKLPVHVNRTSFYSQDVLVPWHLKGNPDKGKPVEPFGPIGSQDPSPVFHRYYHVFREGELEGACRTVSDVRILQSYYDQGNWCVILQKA
# This is one part of the list.
# Experiments:
# Assay in all cases: log2 fold change, soluble protein after heating vs DMSO (PISA); higher = thermal stabilisation; K562 lysate, 10 uM; active = over 0.2 and 3.5 SD of the protein, either way, in both replicates (recomputed)
# vemurafenib = compound: CCCS(=O)(=O)Nc1ccc(F)c(C(=O)c2c[nH]c3ncc(-c4ccc(Cl)cc4)cc23)c1F [vemurafenib]
# Summary of the method: (§1)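 Pellets of K562 cells were dounce-homogenised in PBS pH 7.4 with 1 mM MgCl2, and the crude extract was held at 1 mg/mL protein for a 30 min treatment with 10 μM compound. Aliquots were heated for 3 min over 48°C-58°C and pooled before NP-40 was added to 0.5% at 4°C. The supernatant from 21,000xg for 90 min was quantified by TMTpro 16plex LC-MS/MS with channel sums equalised. Values are reported from duplicates as log-two fold change in thermal stability relative to solvent controls.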
# [1] = compound: CCCS(=O)(=O)Nc1ccc(F)c(C(=O)c2c[nH]c3ncc(Cl)cc23)c1F
# Summary of the method: as §1
# barasertib = compound: CCN(CCCOc1ccc2c(Nc3cc(CC(=O)Nc4cccc(F)c4)[nH]n3)ncnc2c1)CCOP(=O)(O)O [barasertib]
# Summary of the method: as §1
# [2] = compound: CC[C@@H]1C(=O)N(C)c2cnc(Nc3ccc(C(=O)NC4CCN(C)CC4)cc3OC)nc2N1C1CCCC1
# Summary of the method: as §1
# volasertib = compound: CC[C@@H]1C(=O)N(C)c2cnc(Nc3ccc(C(=O)N[C@H]4CC[C@H](N5CCN(CC6CC6)CC5)CC4)cc3OC)nc2N1C(C)C [volasertib]
# Summary of the method: as §1
# [3] = compound: CCn1c(C(=O)N(C2CC2)C2CC2)cc2c3c(ncn3C)c(Nc3cc(C)n(C)n3)nc21
# Summary of the method: as §1
# [4] = compound: CCn1cc(-c2ccnc3[nH]c(-c4cccc(CN(C)C)c4)cc23)c(-c2ccc(NC(=O)N(C)C)cc2)n1
# Summary of the method: as §1
# [5] = compound: CN1CCC(CNc2ccc3ncc(-c4cccc(OC(F)(F)F)c4)n3n2)CC1
# Summary of the method: as §1
# saracatinib = compound: CN1CCN(CCOc2cc(OC3CCOCC3)c3c(Nc4c(Cl)ccc5c4OCO5)ncnc3c2)CC1 [saracatinib]
# Summary of the method: as §1
# sotrastaurin = compound: CN1CCN(c2nc(C3=C(c4c[nH]c5ccccc45)C(=O)NC3=O)c3ccccc3n2)CC1 [sotrastaurin]
# Summary of the method: as §1
Target,log2 fold change (vemurafenib),log2 fold change [1],log2 fold change (barasertib),log2 fold change [2],log2 fold change (volasertib),log2 fold change [3],log2 fold change [4],log2 fold change [5],log2 fold change (saracatinib),log2 fold change (sotrastaurin)
ANXA2 isoform 2 (UniProt P07355),inactive: -0.03,inactive: -0.004,inactive: -0.021,inactive: 0,inactive: 0.017,inactive: 0.033,inactive: -0.003,inactive: -0.02,inactive: 0.013,inactive: -0.012
ALDH5A1 isoform 2 (UniProt P51649),inactive: -0.016,inactive: 0.011,inactive: -0.009,inactive: -0.024,inactive: -0.001,inactive: 0.031,inactive: 0.004,inactive: 0.008,inactive: 0,inactive: -0.023
ANKHD1 isoform 6 (UniProt Q8IWZ3),inactive: 0.019,inactive: 0.043,inactive: 0.04,inactive: -0.011,inactive: -0.04,inactive: 0.015,inactive: -0.126,inactive: 0.105,inactive: 0.025,inactive: 0.03
ALG8 (UniProt Q9BVK2),inactive: -0.038,inactive: -0.013,inactive: 0,inactive: -0.084,inactive: 0.034,inactive: 0.045,active: -0.316,inactive: 0.001,inactive: 0.005,inactive: 0.038
ANKRD13D isoform 3 (UniProt Q6ZTN6),inactive: -0.088,inactive: 0.048,inactive: 0.143,inactive: 0.218,inactive: -0.069,inactive: 0.173,inactive: 0.056,inactive: 0.062,inactive: -0.045,inactive: -0.01
ANKFY1 isoform 4 (UniProt Q9P2R3),inactive: 0.079,inactive: 0.007,inactive: 0.049,inactive: -0.029,inactive: -0.028,inactive: 0.014,inactive: -0.014,inactive: -0.052,inactive: 0.006,inactive: -0.018
ANAPC2 (UniProt Q9UJX6),inactive: 0.05,inactive: 0.026,inactive: -0.007,inactive: 0.016,inactive: -0.047,inactive: 0.002,inactive: -0.078,inactive: 0.058,inactive: 0.017,inactive: 0.002
ANKRD49 (UniProt Q8WVL7),inactive: -0.022,inactive: -0.014,inactive: -0.037,inactive: -0.093,inactive: 0.011,inactive: 0.026,inactive: 0.028,inactive: -0.003,inactive: 0.01,inactive: -0.059
ALAD (UniProt P13716),inactive: 0.034,inactive: 0.011,inactive: 0.017,inactive: 0.062,inactive: 0.006,inactive: -0.04,inactive: -0.077,inactive: 0.053,inactive: 0.024,inactive: 0.025
ALDH16A1 (UniProt Q8IZ83),inactive: -0.025,inactive: 0.041,inactive: -0.014,inactive: -0.063,inactive: 0.013,inactive: -0.019,inactive: -0.031,inactive: 0.06,inactive: 0.008,inactive: 0.003
ALG5 (UniProt Q9Y673),inactive: 0.028,inactive: 0.011,inactive: -0.059,inactive: -0.019,inactive: -0.021,inactive: 0.037,inactive: -0.054,inactive: -0.008,inactive: 0.079,inactive: 0.004
ALDOC (UniProt P09972),inactive: -0.028,inactive: 0.065,inactive: -0.071,inactive: 0.035,inactive: 0.024,inactive: -0.013,inactive: 0.013,inactive: 0.007,inactive: -0.011,inactive: 0.001
AP4B1 (UniProt Q9Y6B7),inactive: 0.026,inactive: 0.087,inactive: 0.028,inactive: -0.01,inactive: -0.009,inactive: 0.011,inactive: -0.035,inactive: 0.02,inactive: 0.042,inactive: -0.027
ANK1 isoform 14 (UniProt P16157),inactive: 0.03,inactive: 0.011,inactive: 0.056,inactive: -0.04,inactive: -0.083,inactive: 0.038,inactive: -0.013,inactive: -0.062,inactive: 0.002,inactive: 0.013
ALKBH4 (UniProt Q9NXW9),inactive: 0.061,inactive: 0.018,inactive: 0.086,inactive: -0.133,inactive: -0.068,inactive: 0.074,inactive: 0.025,inactive: 0,inactive: -0.019,inactive: 0.036
ANXA1 (UniProt P04083),inactive: -0.007,inactive: -0.027,inactive: -0.038,inactive: -0.022,inactive: -0.011,inactive: 0.008,inactive: 0.028,inactive: 0.049,inactive: -0.019,inactive: 0.017
ANTXR2 isoform 4 (UniProt P58335),inactive: 0.03,inactive: -0.001,inactive: 0,inactive: 0.004,inactive: 0.032,inactive: -0.031,inactive: -0.111,inactive: 0.107,inactive: -0.026,inactive: 0
ANGEL2 (UniProt Q5VTE6),inactive: 0.006,inactive: 0.036,inactive: -0.066,inactive: -0.04,inactive: -0.054,inactive: -0.103,inactive: -0.068,inactive: 0.016,inactive: 0.001,inactive: 0.064
ALDH1A2 (UniProt O94788),inactive: -0.033,inactive: -0.001,inactive: -0.046,inactive: -0.053,inactive: -0.006,inactive: -0.015,inactive: -0.016,inactive: 0.095,inactive: 0.022,inactive: 0
ALG9 isoform 3 (UniProt Q9H6U8),inactive: -0.036,inactive: 0.008,inactive: 0.003,inactive: 0.056,inactive: -0.006,inactive: 0.013,inactive: -0.115,inactive: 0.12,inactive: -0.107,inactive: 0.016
ANXA6 (UniProt P08133),inactive: -0.003,inactive: 0.016,inactive: 0.022,inactive: -0.128,inactive: -0.024,inactive: -0.017,inactive: -0.14,inactive: 0.114,inactive: -0.009,inactive: 0.013
ALKBH2 (UniProt Q6NS38),inactive: -0.008,inactive: 0.043,inactive: 0.062,inactive: 0.039,inactive: 0.037,inactive: -0.089,inactive: -0.098,inactive: 0.019,inactive: -0.066,inactive: 0.135
ALDH1A1 (UniProt P00352),inactive: -0.027,inactive: 0.001,inactive: -0.014,inactive: -0.016,inactive: -0.005,inactive: -0.052,inactive: 0.051,inactive: -0.09,inactive: 0.272,inactive: 0.001
ANKMY2 (UniProt Q8IV38),inactive: -0.015,inactive: 0.017,inactive: 0.019,inactive: 0,inactive: -0.047,inactive: 0.021,inactive: 0.141,inactive: -0.091,inactive: 0.003,inactive: 0.005
ANO6 (UniProt Q4KMQ2),inactive: 0.031,inactive: 0.027,inactive: 0.023,inactive: -0.011,inactive: -0.016,inactive: -0.015,inactive: -0.039,inactive: -0.034,inactive: 0.025,inactive: -0.001
ANKRD26 (UniProt Q9UPS8),inactive: -0.277,inactive: -0.079,inactive: 0.267,inactive: 0.146,inactive: 0.02,inactive: -0.062,,,,inactive: -0.014
ANKRD54 (UniProt Q6NXT1),inactive: -0.031,inactive: 0.053,inactive: -0.026,inactive: 0.021,inactive: 0.006,inactive: -0.005,inactive: 0.004,inactive: 0.011,inactive: -0.004,inactive: 0.001
ANKRD13A (UniProt Q8IZ07),inactive: -0.009,inactive: 0.062,inactive: 0,inactive: -0.002,inactive: -0.003,inactive: -0.023,inactive: -0.053,inactive: -0.003,inactive: 0.034,inactive: 0.034
ALKBH8 isoform 4 (UniProt Q96BT7),inactive: 0.033,inactive: 0.02,inactive: 0.043,inactive: 0.046,inactive: -0.039,inactive: -0.059,inactive: -0.058,inactive: 0.132,inactive: 0.01,inactive: 0.025
ALMS1 (UniProt Q8TCU4),inactive: 0.064,inactive: 0.025,inactive: 0.002,inactive: 0.02,inactive: 0.072,inactive: -0.024,inactive: -0.054,inactive: 0.039,inactive: 0.003,inactive: 0

# Some values from above:
# log2 fold change (vemurafenib), ALDH5A1 isoform 2 (UniProt P51649) reads inactive: -0.016
# log2 fold change [2], ALG9 isoform 3 (UniProt Q9H6U8) reads inactive: 0.056

# Already shown: an excerpt of the list.
Target,log2 fold change (vemurafenib),log2 fold change [1],log2 fold change (barasertib),log2 fold change [2],log2 fold change (volasertib),log2 fold change [3],log2 fold change [4],log2 fold change [5],log2 fold change (saracatinib),log2 fold change (sotrastaurin)
ANKRD26 (UniProt Q9UPS8),inactive: -0.277,inactive: -0.079,inactive: 0.267,inactive: 0.146,inactive: 0.02,inactive: -0.062,,,,inactive: -0.014
ANKRD54 (UniProt Q6NXT1),inactive: -0.031,inactive: 0.053,inactive: -0.026,inactive: 0.021,inactive: 0.006,inactive: -0.005,inactive: 0.004,inactive: 0.011,inactive: -0.004,inactive: 0.001
